From PMC3433420
No constants are given. Whether binding was seen depends on the method and setting.

Chains of the proteins cited; added tags and fusions are not shown. Residues count along the entry.
UniProt Q14451, residues 431-527: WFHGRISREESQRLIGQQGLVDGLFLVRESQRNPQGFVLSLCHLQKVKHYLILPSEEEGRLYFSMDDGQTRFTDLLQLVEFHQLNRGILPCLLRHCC
UniProt Q13882, residues 78-170: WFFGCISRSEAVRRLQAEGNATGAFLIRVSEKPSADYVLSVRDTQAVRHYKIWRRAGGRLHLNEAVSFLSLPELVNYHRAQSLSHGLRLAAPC

Tests used:
[1] = target: T1, ErbB2pY1196 phosphopeptide, rhodamine-labelled (human); assay: condition: protein to 10 uM; detection threshold KD 20 uM; fluorescence polarisation; saturation binding in solution: rhodamine peptide fixed at 10 nM, protein titrated 0.002-10 uM, 20 min at room temperature; assay buffer 20 mM HEPES, 100 mM KCl, 0.1% Tween-20, 5 mM DTT, pH 7.8; apparent KD; both purified
T1 sequence (peptide, phosphotyrosine at position 5 (Tyr1196); rhodamine on the N-terminus): ENPEYLTPQGGAD

[2] = target: T2, ErbB2pY735 phosphopeptide, rhodamine-labelled (human); assay: as above
T2 sequence (peptide, phosphotyrosine at position 5 (Tyr735); rhodamine on the N-terminus): FGTVYKGIWIPDD

binding [1]	binding [2]	Substance
no binding	no binding	GRB7 SH2 domain (from UniProt Q14451 431-527) (domain or fragment)
	no binding	PTK6 SH2 domain (from UniProt Q13882 78-170) (domain or fragment)
	no binding	SRC SH2 domain (from UniProt P12931-1 151-248) (domain or fragment)
